Changes are numbered by the printed parent chain. In names and notes the source's numbering stands. These are yes or no findings as the source states them, for the method shown. Where a sequence is shown, tags or fusion partners need not be part of it. Blank lines part the entries; values can stand above or below the binder they belong to.
Experiments:
Experiment in all cases: SEC; Superdex75 10/300 column, calibrated with standards of known molecular weight; wild type and variants at similar concentrations; both purified
[1] = target: ComFB N4K variant, histidine-tagged (B. subtilis) (UniProt P39146)
[2] = target: ComFB Y46F variant, histidine-tagged (B. subtilis) (UniProt P39146)
[3] = target: ComFB E7K variant, histidine-tagged (B. subtilis) (UniProt P39146)

- binding [1]: no binding
B1: ComFB N4K variant, histidine-tagged (protein, UniProt P39146 1-98)
chain: MLVKSKEIVMKELLDRYMDQLHMACTCQVCQNDVLALSLNKVSPSYVTDFKKIAYTKAELVDKQKNTAMLVILAESAAVVSESPSDLCQTKQEEAFIN

- binding [2]: no binding
B2: ComFB Y46F variant, histidine-tagged (protein, UniProt P39146 1-98)
chain: B1 chain with K4N, Y46F

- binding [3]: no binding
B3: ComFB E7K variant, histidine-tagged (protein, UniProt P39146 1-98)
chain: B1 chain with K4N, E7K

Reference: PMC4381287, “Structural characterization of the late competence protein ComFB from Bacillus subtilis” (Bioscience Reports, 2014)
